The target of the test is T1, GFP-Aub (Aubergine) (Drosophila) (UniProt O76922).
T1 sequence: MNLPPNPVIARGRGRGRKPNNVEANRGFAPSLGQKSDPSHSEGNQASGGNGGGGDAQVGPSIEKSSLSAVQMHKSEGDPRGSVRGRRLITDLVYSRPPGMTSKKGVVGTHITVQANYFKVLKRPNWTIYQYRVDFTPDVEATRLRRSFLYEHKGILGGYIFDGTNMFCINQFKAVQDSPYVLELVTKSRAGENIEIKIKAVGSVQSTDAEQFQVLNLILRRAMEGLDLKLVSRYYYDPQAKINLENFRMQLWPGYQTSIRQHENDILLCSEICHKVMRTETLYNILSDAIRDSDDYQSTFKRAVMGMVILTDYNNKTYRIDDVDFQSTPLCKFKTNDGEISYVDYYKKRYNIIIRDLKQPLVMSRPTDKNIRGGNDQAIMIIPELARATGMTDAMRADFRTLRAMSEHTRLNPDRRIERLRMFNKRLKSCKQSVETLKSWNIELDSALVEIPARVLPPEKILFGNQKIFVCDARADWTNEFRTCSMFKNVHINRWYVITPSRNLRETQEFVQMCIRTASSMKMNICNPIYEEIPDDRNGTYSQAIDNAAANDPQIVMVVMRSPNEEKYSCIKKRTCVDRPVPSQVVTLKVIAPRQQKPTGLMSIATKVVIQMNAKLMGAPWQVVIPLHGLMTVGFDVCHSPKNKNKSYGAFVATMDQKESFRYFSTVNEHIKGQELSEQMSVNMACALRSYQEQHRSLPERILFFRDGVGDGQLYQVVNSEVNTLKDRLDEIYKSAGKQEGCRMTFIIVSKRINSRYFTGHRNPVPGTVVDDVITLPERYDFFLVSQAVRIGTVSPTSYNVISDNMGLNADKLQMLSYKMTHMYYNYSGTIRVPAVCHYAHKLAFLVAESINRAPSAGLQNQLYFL
The test is described as follows: co-IP.

Results are given in words; binding and its absence hold for the method and conditions named. In cells and extracts the contact can be indirect. Binding can be weak; no strength is given. Sequences can lack the tags named with a protein.

For the substance “CCR4 deadenylase (subunit of the CCR4-NOT deadenylation complex) (Drosophila (endogenous in ovaries))”, the binding result is on record as “binds”.

Source of the values: publication doi:10.1101/134304.
